Assay results published in patent US8992674B2, “Ink, ink cartridge and ink jet recording method” (Canon Kabushiki Kaisha, priority 2012, dated 2015).
Some of these results come from one statement about several compounds together. At least one compound was matched to its structure with a doubt left.

Experiment: Measurement of Δλmax (UV-Vis absorption spectra in 20.0% 1,2-hexanediol aqueous solution and in water)
Type: physicochemical
Conditions: λmaxD2−λmaxW2, statement in the description
Text: Specifically, the ink according to the present invention contains a first coloring material and a second coloring material satisfying the following conditions. […] Further, the sum of the Δλmax1 and the Δλmax2 needs to be 35.0 or less. λmax refers to a maximum absorption wavelength in the visible region (380 to 750 nm) in a UV-Vis absorption spectrum of a coloring material, and can be measured using a spectrophotometer.
In a coloring material in which an associating state and a non-associating state are concurrently present, the absorption spectrum has a plurality of maximal-absorption wavelengths in some cases. Then, respective peak shapes (heights) at the maximal-absorption wavelengths representing the associating state and the non-associating state vary depending on a liquid medium to be used in some cases. The maximum absorption wavelength in the present invention means the following. That is, even in the case where a maximum absorption wavelength in an absorption spectrum in 20.0% by mass aqueous solution of 1,2-hexanediol shifts based on an absorption spectrum in water, a peak originated from a maximum absorption wavelength in water is taken as the maximum absorption wavelength. […] In the present invention, since it is important to consider the shift of a wavelength giving a highest absorbance, a maximum absorption wavelength in 20.0% by mass aqueous solution of 1,2-hexanediol is considered to be a maximal-absorption wavelength on a larger wavelength side, which is a peak originated from a maximum absorption wavelength in water.
For each coloring material, the difference Δλmax (=λmaxD−λmaxW) between a maximum absorption wavelength (λmaxD) in a 20.0% by mass aqueous solution of 1,2-hexanediol and a maximum absorption wavelength (λmaxW) in water in UV-Vis absorption spectra was measured. λmaxD and λmaxW were measured by diluting each coloring material by using a 20.0% by mass aqueous solution of 1,2-hexanediol or ion-exchange water so that the content of the coloring material became 0.002 to 0.005%. The measurement condition is shown below. Then, the value Δλmax=λmaxD−λmaxW was determined from the measurement. Here, the unit of λmax is “nm.”
Spectrophotometer: a self-recording spectrophotometer (trade name “U-3300,” made by Hitachi, Ltd.)
Measurement cell: 1-cm quartz cell
Sampling interval: 0.1 nm
Scanning speed: 30 nm/min

| Molecule | Δλmax2 |
| --- | --- |
| Nc1cc2c(O)c(N=Nc3ccc(N=Nc4ccc(S(=O)(=O)[O-])cc4)c4ccc(S(=O)(=O)[O-])cc34)c(S(=O)(=O)[O-])cc2cc1S(=O)(=O)[O-].[Na+].[Na+].[Na+].[Na+] [C.I. Food Black 2] | ≤ 12.0 |
| Cc1ccc(S(=O)(=O)Nc2cc(S(=O)(=O)[O-])cc3cc(S(=O)(=O)[O-])c(N=Nc4cc(Cl)ccc4Oc4ccccc4)c(O)c23)cc1.[Na+].[Na+] [C.I. Acid Red 249] | ≤ 12.0 |
| Cc1cccc(C)c1N=c1ccc2c(-c3ccccc3S(=O)(=O)O)c3ccc(Nc4c(C)ccc(S(=O)(=O)[O-])c4C)cc3oc-2c1.[Na+] [C.I. Acid Red 289] | ≤ 12.0 |
| O=S(=O)([O-])c1cc(Nc2nc(Nc3ccc(/C=C/c4ccc(Nc5nc(Nc6cc(S(=O)(=O)[O-])cc7cc(S(=O)(=O)[O-])c(N=Nc8ccccc8)c(O)c67)nc(N6CCOCC6)n5)cc4S(=O)(=O)[O-])c(S(=O)(=O)[O-])c3)nc(N3CCOCC3)n2)c2c(O)c(N=Nc3ccccc3)c(S(=O)(=O)[O-])cc2c1.[Na+].[Na+].[Na+].[Na+].[Na+].[Na+] [C.I. Direct Red 227] | ≤ 12.0 |
| C.I. Direct Blue 199 | ≤ 12.0 |
| C.I. Acid Yellow 17 | ≤ 12.0 |
